Paper PMC9321951, “Thiol redox switches regulate the oligomeric state of cyanobacterial Rre1, RpaA and RpaB response regulators” (Febs Letters, 2022)
Results are given in words; binding and its absence hold for the method and conditions named. Tags and fused reporters may be left off the sequences shown.

Assays:
[1] = target: Response Regulator 1 (Rre1), full-length, MBP-tagged (Synechocystis sp. PCC 6803) (UniProt P72781); experiment: non-reducing urea-SDS/PAGE; 2 mM DTT, 30 min, room temperature, added to air-oxidised Rre1, RpaA, RpaB or to diamide-oxidised, desalted RppA; non-reducing SDS-6 M urea-8% PAGE; both purified
[2] = target: Response Regulator 1 (Rre1), full-length, MBP-tagged (Synechocystis sp. PCC 6803) (UniProt P72781); experiment: non-reducing urea-SDS/PAGE; protein as purified from E. coli incubated with 5 mM TrxA and 0.1 mM DTT; non-reducing urea-SDS/PAGE, Coomassie; both purified
[3] = target: Response Regulator 1 (Rre1), full-length, MBP-tagged (Synechocystis sp. PCC 6803) (UniProt P72781); experiment: SEC; Rre1, RpaA or RppA reduced with 2 mM DTT; Superdex S200 10/300GL Increase; 100 mM HEPES pH 8.0, 100 mM NaCl, 2 mM DTT; both purified

- binding [1]: no binding (condition: with 2 mM DTT)
- binding [3]: no binding (condition: with 2 mM DTT)
B1: Response Regulator 1 (Rre1), full-length, MBP-tagged (natural protein, Synechocystis sp. PCC 6803, UniProt P72781 1-231, looked up)
chain: MAEPISLLLVDDEPGVRESVQAFLEDSGDFKVDLAANATEAWDYLQHHLPALVISDIMMPQVDGYQFLQKLREDARFQSLPVVFLTARGMTGDRIQGYQTGCDAFLSKPFDPDELEAIVRNLLARQQASSDAGSESAKLQEIYQEIRALKEQIGQPSGIHTTPSPIKLDFTPREQSVLDLVSQGLMNKEIAAQLKTSVRNVEKYVSRLFTKTGTNSRTELVRFALQHGLTE
notes: Rre1 (response regulator 1), Synechocystis sp; Cloned KpnI/XhoI into pETG-41A; theoretical mass of the MBP-tagged monomer printed as 75 kDa
- binding [2]: no binding (condition: with 5 mM TrxA and 0.1 mM DTT)
